The list shows a part of the results.
Compound: Cc1cc(ccc1-c1ccccc1)C(=O)N1CCCN(CC1)C(=O)CCl [compound 10]
Assay: probe-labelled cysteine peptide fold change vs DMSO (competition) (log2 fold change); higher = less target engagement (more negative = stronger competition)
Conditions: THP-1, incubation time: 4 h
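Also: competitive profiling in live THP-1 cells: cysteine peptides tagged with an iodoacetamide desthiobiotin (IA-DTB) probe, intensity after compound treatment relative to DMSO-treated cells.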

Target	probe-labelled cysteine peptide fold change (10 µM)	probe-labelled cysteine peptide fold change (50 µM)
CMAS_Q8NFW8_422_EFAEHICLLMEK (UniProt Q8NFW8)	-0.0896	-0.0383
CHD9_Q3L8U1_1705_ADPALCFLER (UniProt Q3L8U1)	0.0167	0.18
CHEK2_O96017_108_LWALQDGFANLECVNDNYWFGR (UniProt O96017)	0.059	0.0448
CIAO1_O76071_261_TIYDIAWCQLTGALATACGDDAIR (UniProt O76071)	0.161	-0.164
CLSPN_Q9HAW4_397_ETQIITGSDESCR (UniProt Q9HAW4)	-0.241	0.0264
CKAP5_Q14008_1768_TLLHTLCK (UniProt Q14008)	0.00289	-0.111
CLIC1_O00299_24_IGNCPFSQR (UniProt O00299)	-0.71	-0.744
CLTCL1_P53675_617_AHIAQLCEK (UniProt P53675)	-0.0386	0.02
CINP_Q9BW66_81_VCLEYNEELEK (UniProt Q9BW66)	-0.136	-0.189
CLTC_Q00610_1528_QSVELCK (UniProt Q00610)	-0.166	0.0303
CKAP5_Q14008_637_TEMPCQALVR (UniProt Q14008)	-0.0329	0.0705
CMC1_Q7Z7K0_31_CSEQVQDFTK (UniProt Q7Z7K0)	-0.448	-0.108
CHD1L_Q86WJ1_739_YVSGDVTHPQAGAEDALIVHCVDDSGHWGR (UniProt Q86WJ1)	-0.141	-0.153
CGAS_Q8N884_199_CDSAFR (UniProt Q8N884)	-0.166	0.0725
CIZ1_Q9ULV3_631_LGEIQHMSQACLLSLLPVPR (UniProt Q9ULV3)	0.16	-0.196
CLTC_Q00610_292_YGYIHLYDLETGTCIYMNR (UniProt Q00610)	0.277	0.445
CLASP1_Q7Z460_173_IVPHICNLLGDPNSQVR (UniProt Q7Z460)	0.117	-0.368
CLTC_Q00610_926+934_GQCDLELINVCNENSLFK (UniProt Q00610)	0.00128	-0.0309
CIB1_Q99828_134_LVNCLTGEGEDTR (UniProt Q99828)	0.0161	0.198
CFL1_P23528_39_AVLFCLSEDK (UniProt P23528)	0.0825	0.0485
CLASP1_Q7Z460_1212_ECDIVSR (UniProt Q7Z460)	-0.0347	-0.209
CHD4_Q14839_396_AYHMVCLDPDMEK (UniProt Q14839)	-0.067	0.347

Record cards, as listed above.
CHEK2_O96017_108_LWALQDGFANLECVNDNYWFGR (UniProt O96017) in the list: probe-labelled cysteine peptide fold change (10 µM): 0.059; probe-labelled cysteine peptide fold change (50 µM): 0.0448
CIB1_Q99828_134_LVNCLTGEGEDTR (UniProt Q99828) in the list: probe-labelled cysteine peptide fold change (10 µM): 0.0161; probe-labelled cysteine peptide fold change (50 µM): 0.198
CKAP5_Q14008_637_TEMPCQALVR (UniProt Q14008) in the list: probe-labelled cysteine peptide fold change (10 µM): -0.0329; probe-labelled cysteine peptide fold change (50 µM): 0.0705

Further records follow:

Target	probe-labelled cysteine peptide fold change (10 µM)	probe-labelled cysteine peptide fold change (50 µM)
CLEC16A_Q2KHT3_588_DVHLACLEGAREESVHLVR (UniProt Q2KHT3)	-0.223	-0.195
CLTC_Q00610_926_GQCDLELINVCNENSLFK (UniProt Q00610)	-0.0482	-0.037
CMAS_Q8NFW8_380_EVAYLGNEVSDEECLKR (UniProt Q8NFW8)	-0.0599	0.187
CIC_Q96RK0_506_SSFTHCRPPLDPEPPGPPDPPVAFGK (UniProt Q96RK0)	-0.257	-0.226
CIAO2A_Q9H5X1_155_EIVEQCVLEPD (UniProt Q9H5X1)	-0.43	-0.0552
CLIP1_P30622_111_YFQCEPLK (UniProt P30622)	0.222	0.0162
CLIC4_Q9Y696_234_DEFTNTCPSDK (UniProt Q9Y696)	-0.177	0.0243
CHD1_O14646_1417_TFSICK (UniProt O14646)	0.109	-0.131
CLTCL1_P53675_918_RDPHLACVAYER (UniProt P53675)	0.018	0.107
CHURC1_Q8WUH1_88_EEDGEEIVTYDHLCK (UniProt Q8WUH1)	-0.029	0.282
CLUH_O75153_762_DCMEHAVLPVDGATLAEVMR (UniProt O75153)	-0.115	-0.208
CIT_O14578_356_FEGLCCHPFFSK (UniProt O14578)	0.00229	0.0304
CHD2_O14647_365_VSPEDVEYFNCQQELASELNK (UniProt O14647)	-0.23	0.0695
CHM_P24386_444_IISEHFLVEDSYFPENMCSR (UniProt P24386)	0.0119	-0.076
CHERP_Q8IWX8_190_SPPHCELMAGHLR (UniProt Q8IWX8)	-0.157	-0.164
CIAPIN1_Q6FI81_249+251_NCTCGLAEELEK (UniProt Q6FI81)	-0.0271	-0.453
CHCHD5_Q9BSY4_44_MSIAQCTSSHPIIR (UniProt Q9BSY4)	-0.00374	0.266
CKAP5_Q14008_1026_STPTDLILCVPHLYSCLEDR (UniProt Q14008)	0.144	-0.0942
CLCN3_P51790_783_QCLVTHNGR (UniProt P51790)	0.151	0.274
CLTA_P09496_218_LCDFNPK (UniProt P09496)	-0.0392	-0.182
CHORDC1_Q9UHD1_5_ALLCYNR (UniProt Q9UHD1)	-0.168	0.348
